# PubChem BioAssay AID1224830 – NIAID, 2016
# Aim: 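Genes whose knock-down alters the TNF-alpha reporter response to LPS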 (primary screen)
# Cell system: human THP-1 monocytic leukaemia cells, TNF dual-luciferase reporter clone, PMA-differentiated to macrophage-like cells
# Reagent: siRNA pool against human genes, 50 nM
# Timing: LPS for 4 h, given about 3 days after siRNA transfection
# Conditions: bacterial LPS (TLR4 ligand), 10 ng/ml
# Read-out: 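TNF firefly reporter luminescence divided by renilla, normalised to the plate median, then turned into a robust z-score for each replicate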
# Direction: TNF reporter robust z-score: higher = stronger TNF reporter response to LPS
# Active means: 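Each well counts as active if its z-score is over 2.8 or under -1.5; controls are left without a call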
# The whole screen tested about 18,000 reagents; shown is a part drawn at random. About 2,900 of them (16%) were called active. 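Calls are made per well; low scores hint the gene aids the LPS response, high scores that it dampens it.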 Repeated entries: four replicate wells of each siRNA pool.
gene knocked down,TNF reporter robust z-score,Call
ZNF100 (zinc finger protein 100),-0.23,inactive
ZNF100 (zinc finger protein 100),-0.66,inactive
ZNF100 (zinc finger protein 100),0.2,inactive
ZNF100 (zinc finger protein 100),0.8,inactive
TRAF1 (TNF receptor associated factor 1),-0.55,inactive
TRAF1 (TNF receptor associated factor 1),-0.75,inactive
TRAF1 (TNF receptor associated factor 1),-0.29,inactive
TRAF1 (TNF receptor associated factor 1),-1.04,inactive
GALNT7 (polypeptide N-acetylgalactosaminyltransferase 7),-0.67,inactive
GALNT7 (polypeptide N-acetylgalactosaminyltransferase 7),0.37,inactive
GALNT7 (polypeptide N-acetylgalactosaminyltransferase 7),-1.1,inactive
GALNT7 (polypeptide N-acetylgalactosaminyltransferase 7),-0.75,inactive
GPX3 (glutathione peroxidase 3),-1.68,active
GPX3 (glutathione peroxidase 3),-1.47,inactive
GPX3 (glutathione peroxidase 3),-1.24,inactive
GPX3 (glutathione peroxidase 3),-0.61,inactive
TRH (thyrotropin releasing hormone),-1.44,inactive
TRH (thyrotropin releasing hormone),-1.27,inactive
TRH (thyrotropin releasing hormone),-1.51,active
TRH (thyrotropin releasing hormone),-1.46,inactive
HBEGF (heparin binding EGF like growth factor),-0.64,inactive
HBEGF (heparin binding EGF like growth factor),-0.6,inactive
HBEGF (heparin binding EGF like growth factor),-0.81,inactive
HBEGF (heparin binding EGF like growth factor),-0.15,inactive
NOS2 (nitric oxide synthase 2),-0.2,inactive
NOS2 (nitric oxide synthase 2),-0.01,inactive
NOS2 (nitric oxide synthase 2),0.06,inactive
NOS2 (nitric oxide synthase 2),1.63,inactive
ANK3 (ankyrin 3),-0.41,inactive
ANK3 (ankyrin 3),0.55,inactive
ANK3 (ankyrin 3),0.43,inactive
ANK3 (ankyrin 3),2.32,inactive
TAF7L (TATA-box binding protein associated factor 7 like),0,inactive
TAF7L (TATA-box binding protein associated factor 7 like),0.32,inactive
TAF7L (TATA-box binding protein associated factor 7 like),-0.47,inactive
TAF7L (TATA-box binding protein associated factor 7 like),-0.23,inactive
BLOC1S1 (biogenesis of lysosomal organelles complex 1 subunit 1),-1.77,active
BLOC1S1 (biogenesis of lysosomal organelles complex 1 subunit 1),-0.3,inactive
BLOC1S1 (biogenesis of lysosomal organelles complex 1 subunit 1),-0.42,inactive
BLOC1S1 (biogenesis of lysosomal organelles complex 1 subunit 1),-1.11,inactive
TM2D2 (TM2 domain containing 2),-0.68,inactive
TM2D2 (TM2 domain containing 2),0.64,inactive
TM2D2 (TM2 domain containing 2),0.7,inactive
TM2D2 (TM2 domain containing 2),0.75,inactive
LCA5L (lebercilin LCA5 like),-0.1,inactive
LCA5L (lebercilin LCA5 like),0.48,inactive
LCA5L (lebercilin LCA5 like),0.42,inactive
LCA5L (lebercilin LCA5 like),0.69,inactive
LCN9 (lipocalin 9),-0.86,inactive
LCN9 (lipocalin 9),-0.62,inactive
LCN9 (lipocalin 9),-0.71,inactive
LCN9 (lipocalin 9),-0.36,inactive
PUSL1 (pseudouridine synthase like 1),0.17,inactive
PUSL1 (pseudouridine synthase like 1),1.03,inactive
PUSL1 (pseudouridine synthase like 1),0.11,inactive
PUSL1 (pseudouridine synthase like 1),0.81,inactive
GFRA2 (GDNF family receptor alpha 2),0.38,inactive
GFRA2 (GDNF family receptor alpha 2),1.64,inactive
GFRA2 (GDNF family receptor alpha 2),-0.12,inactive
GFRA2 (GDNF family receptor alpha 2),1.53,inactive
TMEM17 (transmembrane protein 17),0.13,inactive
TMEM17 (transmembrane protein 17),0.52,inactive
TMEM17 (transmembrane protein 17),-1.13,inactive
TMEM17 (transmembrane protein 17),-0.91,inactive
ZBTB46 (zinc finger and BTB domain containing 46),2.3,inactive
ZBTB46 (zinc finger and BTB domain containing 46),2.89,active
ZBTB46 (zinc finger and BTB domain containing 46),4.36,active
ZBTB46 (zinc finger and BTB domain containing 46),4.9,active
AUTS2 (activator of transcription and developmental regulator AUTS2),0.82,inactive
AUTS2 (activator of transcription and developmental regulator AUTS2),1.02,inactive
AUTS2 (activator of transcription and developmental regulator AUTS2),0.36,inactive
AUTS2 (activator of transcription and developmental regulator AUTS2),1.53,inactive
ENPP7 (ectonucleotide pyrophosphatase/phosphodiesterase 7),-0.12,inactive
ENPP7 (ectonucleotide pyrophosphatase/phosphodiesterase 7),2.42,inactive
ENPP7 (ectonucleotide pyrophosphatase/phosphodiesterase 7),0.86,inactive
ENPP7 (ectonucleotide pyrophosphatase/phosphodiesterase 7),0.12,inactive
CCDC107 (coiled-coil domain containing 107),-0.5,inactive
CCDC107 (coiled-coil domain containing 107),0.1,inactive
CCDC107 (coiled-coil domain containing 107),-0.13,inactive
CCDC107 (coiled-coil domain containing 107),-1.23,inactive
TAC4 (tachykinin precursor 4),2.87,active
TAC4 (tachykinin precursor 4),3.86,active
TAC4 (tachykinin precursor 4),2.06,inactive
TAC4 (tachykinin precursor 4),1.61,inactive
STARD13 (StAR related lipid transfer domain containing 13),-0.28,inactive
STARD13 (StAR related lipid transfer domain containing 13),1.73,inactive
STARD13 (StAR related lipid transfer domain containing 13),1.8,inactive
STARD13 (StAR related lipid transfer domain containing 13),2.22,inactive
TMEM132B (transmembrane protein 132B),-1.41,inactive
TMEM132B (transmembrane protein 132B),-1.69,active
TMEM132B (transmembrane protein 132B),-1.22,inactive
TMEM132B (transmembrane protein 132B),-0.72,inactive
ZNF563 (zinc finger protein 563),0.51,inactive
ZNF563 (zinc finger protein 563),-0.07,inactive
ZNF563 (zinc finger protein 563),-0.03,inactive
ZNF563 (zinc finger protein 563),-0.06,inactive
"COQ3 (coenzyme Q3, methyltransferase)",-0.59,inactive
"COQ3 (coenzyme Q3, methyltransferase)",-0.26,inactive
"COQ3 (coenzyme Q3, methyltransferase)",-0.85,inactive
"COQ3 (coenzyme Q3, methyltransferase)",-0.67,inactive
"NAA25 (N-alpha-acetyltransferase 25, NatB auxiliary subunit)",1.77,inactive
"NAA25 (N-alpha-acetyltransferase 25, NatB auxiliary subunit)",0.63,inactive
"NAA25 (N-alpha-acetyltransferase 25, NatB auxiliary subunit)",1.26,inactive
"NAA25 (N-alpha-acetyltransferase 25, NatB auxiliary subunit)",1.75,inactive
TBC1D28 (TBC1 domain family member 28),0.59,inactive
TBC1D28 (TBC1 domain family member 28),0.84,inactive
TBC1D28 (TBC1 domain family member 28),0.45,inactive
TBC1D28 (TBC1 domain family member 28),2.54,inactive
ILK (integrin linked kinase),3.41,active
ILK (integrin linked kinase),1.58,inactive
ILK (integrin linked kinase),0.51,inactive
ILK (integrin linked kinase),0.89,inactive

Records above marked active:
gene knocked down,TNF reporter robust z-score,Call
GPX3 (glutathione peroxidase 3),-1.68,active
TRH (thyrotropin releasing hormone),-1.51,active
BLOC1S1 (biogenesis of lysosomal organelles complex 1 subunit 1),-1.77,active
ZBTB46 (zinc finger and BTB domain containing 46),2.89,active
ZBTB46 (zinc finger and BTB domain containing 46),4.36,active
ZBTB46 (zinc finger and BTB domain containing 46),4.9,active
TAC4 (tachykinin precursor 4),2.87,active
TAC4 (tachykinin precursor 4),3.86,active
TMEM132B (transmembrane protein 132B),-1.69,active
ILK (integrin linked kinase),3.41,active
